{"sequences": {"note": "By UniProt entry, the sequences of proteins in these tests, tags left out. Residues count along the entry.", "UniProt P01116, 1-188 isoform P01116-2 G12D": "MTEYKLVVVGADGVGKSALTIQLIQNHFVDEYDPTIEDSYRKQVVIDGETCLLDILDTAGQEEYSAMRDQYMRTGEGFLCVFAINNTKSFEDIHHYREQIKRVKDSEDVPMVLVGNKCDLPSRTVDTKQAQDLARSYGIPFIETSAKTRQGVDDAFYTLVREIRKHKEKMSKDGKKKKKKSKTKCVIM"}, "source": "patent US12351591B2", "about": "“KRas inhibitors” (ELI LILLY AND COMPANY, priority 2022, dated 2025)", "note": "Some entries share one result that the patent states for a list of compounds.", "data": [{"biological_target": "T1, KRas G12D (Homo sapiens, UniProt P01116, G12D)", "T1 construct": "host or cells: PANC-1", "assay": "PANC-1 Cellular Active RAS GTPase ELISA (KRas G12D Mutation)", "assay_type": "cell-based", "conditions": "PANC-1 cells, 2 hours; read-out: relative IC50, inhibition of constitutive RAS GTPase activity (KRas G12D mutant)", "units": {"IC50": "µM"}, "values": [{"smiles": "C[C@@H](O)CN1CC2CCC(C1)N2c1nc(OC[C@@H]2C[C@@H](F)CN2C)nc2c(F)c(-c3ncc(F)c4sc(N)c(C#N)c34)c3c(c12)COC3", "note": "[Example 246, 2-Amino-7-fluoro-4-[5-fluoro-3-[[(2S,4R)-4-fluoro-1-methyl-pyrrolidin-2-yl]methoxy]-1-[3-[(2R)-2-hydroxypropyl]-3,8-diazabicyclo[3.2.1]octan-8-yl]-7,9-dihydrofuro[3,4-f]quinazolin-6-yl]thieno[3,2-c]pyridine-3-carbonitrile]", "IC50": "< 0.1"}, {"smiles": "COCCOc1nc(N2C3CCC2CNC3)c2c3c(c(-c4ccc(F)c5sc(N)c(C#N)c45)c(F)c2n1)COC3", "note": "[Example 10, 2-Amino-4-[1-(3,8-diazabicyclo[3.2.1]octan-8-yl)-5-fluoro-3-(2-methoxyethoxy)-7,9-dihydrofuro[3,4-f]quinazolin-6-yl]-7-fluoro-benzothiophene-3-carbonitrile]", "IC50": "< 0.1"}, {"smiles": "N#Cc1c(N)sc2cccc(-c3c4c(c5c(N6C7CCC6CN(C6COC6)C7)nc(OC[C@@]67CCCN6C[C@H](F)C7)nc5c3F)COC4)c12", "note": "[Example 50, 2-Amino-4-[5-fluoro-3-[[(2R,8S)-2-fluoro-1,2,3,5,6,7-hexahydropyrrolizin-8-yl]methoxy]-1-[3-(oxetan-3-yl)-3,8-diazabicyclo[3.2.1]octan-8-yl]-7,9-dihydrofuro[3,4-f]quinazolin-6-yl]benzothiophene-3-carbonitrile]", "IC50": "< 0.1"}, {"smiles": "COCCCN1CC2CCC(C1)N2c1nc(OC[C@@H]2C[C@@H](F)CN2C)nc2c(F)c(-c3ncc(F)c4sc(N)c(C#N)c34)c3c(c12)COC3", "note": "[Example 237, 2-Amino-7-fluoro-4-[5-fluoro-3-[[(2S,4R)-4-fluoro-1-methyl-pyrrolidin-2-yl]methoxy]-1-[3-(3-methoxypropyl)-3,8-diazabicyclo[3.2.1]octan-8-yl]-7,9-dihydrofuro[3,4-f]quinazolin-6-yl]thieno[3,2-c]pyridine-3-carbonitrile]", "IC50": "< 0.1"}, {"smiles": "N#Cc1c(N)sc2cccc(-c3c4c(c5c(N6C7CCC6CN(CCO)C7)nc(OC[C@@]67CCCN6C[C@H](F)C7)nc5c3F)COC4)c12", "note": "[Example 46, 2-Amino-4-[5-fluoro-3-[[(2R,8S)-2-fluoro-1,2,3,5,6,7-hexahydropyrrolizin-8-yl]methoxy]-1-[3-(2-hydroxyethyl)-3,8-diazabicyclo[3.2.1]octan-8-yl]-7,9-dihydrofuro[3,4-f]quinazolin-6-yl]benzothiophene-3-carbonitrile]", "IC50": "< 0.1"}, {"smiles": "C[C@@H](O)CN1CC2CCC(C1)N2c1nc(OCC23CCCN2CC(F)(F)C3)nc2c(F)c(-c3ncc(F)c4sc(N)c(C#N)c34)c3c(c12)COC3", "note": "(stereo partly drawn) [Example 248, 2-Amino-4-[3-[(6,6-difluoro-2,3,5,7-tetrahydro-1H-pyrrolizin-8-yl)methoxy]-5-fluoro-1-[3-[(2R)-2-hydroxypropyl]-3,8-diazabicyclo[3.2.1]octan-8-yl]-7,9-dihydrofuro[3,4-f]quinazolin-6-yl]-7-fluoro-thieno[3,2-c]pyridine-3-carbonitrile]", "IC50": "< 0.1"}, {"smiles": "CN1CCC[C@H]1CNc1nc(OC[C@@]23CCCN2C[C@H](F)C3)nc2c(F)c(-c3ncc(F)c4sc(N)c(C#N)c34)c3c(c12)COC3", "note": "[Example 323, 2-Amino-7-fluoro-4-[5-fluoro-3-[[(2R,8S)-2-fluoro-1,2,3,5,6,7-hexahydropyrrolizin-8-yl]methoxy]-1-[[(2S)-1-methylpyrrolidin-2-yl]methylamino]-7,9-dihydrofuro[3,4-f]quinazolin-6-yl]thieno[3,2-c]pyridine-3-carbonitrile]", "IC50": "< 0.1"}, {"smiles": "N#Cc1c(N)sc2c(F)cnc(-c3c4c(c5c(N6C7CCC6CN(CC6(O)CC6)C7)nc(OC[C@@]67CCCN6C[C@H](F)C7)nc5c3F)COC4)c12", "note": "[Example 336, 2-Amino-7-fluoro-4-[5-fluoro-3-[[(2R,8S)-2-fluoro-1,2,3,5,6,7-hexahydropyrrolizin-8-yl]methoxy]-1-[3-[(1-hydroxycyclopropyl)methyl]-3,8-diazabicyclo[3.2.1]octan-8-yl]-7,9-dihydrofuro[3,4-f]quinazolin-6-yl]thieno[3,2-c]pyridine-3-carbonitrile]", "IC50": "< 0.1"}, {"smiles": "N#Cc1c(N)sc2ccc(F)c(-c3c4c(c5c(N6C7CCC6CN(CCCCO)C7)ncnc5c3F)COC4)c12", "note": "(single isomer, unassigned) [Example 156, 2-Amino-5-fluoro-4-[5-fluoro-1-[3-(4-hydroxybutyl)-3,8-diazabicyclo[3.2.1]octan-8-yl]-7,9-dihydrofuro[3,4-f]quinazolin-6-yl]benzothiophene-3-carbonitrile]", "IC50": "< 0.1"}, {"smiles": "COCCCN1CC2CCC(C1)N2c1nc(OC[C@@]23CCCN2C[C@H](F)C3)nc2c(F)c(-c3nccc4sc(N)c(C#N)c34)c3c(c12)COC3", "note": "[Example 118, 2-Amino-4-[5-fluoro-3-[[(2R,8S)-2-fluoro-1,2,3,5,6,7-hexahydropyrrolizin-8-yl]methoxy]-1-[3-(3-methoxypropyl)-3,8-diazabicyclo[3.2.1]octan-8-yl]-7,9-dihydrofuro[3,4-f]quinazolin-6-yl]thieno[3,2-c]pyridine-3-carbonitrile]", "IC50": "< 0.1"}, {"smiles": "COCCN1CC2CCC(C1)N2c1nc(OC[C@@]23CCCN2C[C@H](F)C3)nc2c(F)c(-c3nccc4sc(N)c(C#N)c34)c3c(c12)COC3", "note": "[Example 119, 2-Amino-4-[5-fluoro-3-[[(2R,8S)-2-fluoro-1,2,3,5,6,7-hexahydropyrrolizin-8-yl]methoxy]-1-[3-(2-methoxyethyl)-3,8-diazabicyclo[3.2.1]octan-8-yl]-7,9-dihydrofuro[3,4-f]quinazolin-6-yl]thieno[3,2-c]pyridine-3-carbonitrile]", "IC50": "< 0.1"}, {"smiles": "COCCCN1CC2CCC(C1)N2c1nc(OC[C@@H]2CCCN2C)nc2c(F)c(-c3c(F)ccc4sc(N)c(C#N)c34)c3c(c12)COC3", "note": "(single isomer, unassigned) [Example 151]", "IC50": "< 0.1"}, {"smiles": "C[C@@H](O)CN1CC2CCC(C1)N2c1nc(OCC2(N(C)C)CC2)nc2c(F)c(-c3c(F)ccc4sc(N)c(C#N)c34)c3c(c12)COC3", "note": "(single isomer, unassigned) [Example 187]", "IC50": "< 0.1"}, {"smiles": "N#Cc1c(N)sc2c(F)cnc(-c3c4c(c5c(N6C7CCC6CN(CCCOCCO)C7)nc(OC[C@@]67CCCN6C[C@H](F)C7)nc5c3F)COC4)c12", "note": "[Example 225, 2-Amino-7-fluoro-4-[5-fluoro-3-[[(2R,8S)-2-fluoro-1,2,3,5,6,7-hexahydropyrrolizin-8-yl]methoxy]-1-[3-[3-(2-hydroxyethoxy)propyl]-3,8-diazabicyclo[3.2.1]octan-8-yl]-7,9-dihydrofuro[3,4-f]quinazolin-6-yl]thieno[3,2-c]pyridine-3-carbonitrile]", "IC50": "< 0.1"}, {"smiles": "C[C@@H](O)CN1CC2CC(C1)N2c1nc(OC[C@@H]2C[C@@H](F)CN2C)nc2c(F)c(-c3c(F)ccc4sc(N)c(C#N)c34)c3c(c12)COC3", "note": "[Example 367, 2-Amino-5-fluoro-4-[5-fluoro-3-[[(2S,4R)-4-fluoro-1-methyl-pyrrolidin-2-yl]methoxy]-1-[3-[(2R)-2-hydroxypropyl]-3,6-diazabicyclo[3.1.1]heptan-6-yl]-7,9-dihydrofuro[3,4-f]quinazolin-6-yl]benzothiophene-3-carbonitrile]", "IC50": "< 0.1"}]}]}
